Test results taken from US4536396A, “Synergistic sweetening compositions” (Pfizer Inc., priority 1983, dated 1985).
Entries after “also recorded” stand apart in the source; their conditions may differ.

Experiment: Sensory analysis of relative sweetness intensity and taste quality of aqueous solutions compared with sucrose solutions

SMILES	Bitter taste quality of aqueous solutions (concentrations above that equal in sweetness to 6% sucrose)	Bitter aftertaste of aqueous solutions (concentrations equivalent to less than 6% sucrose)	Relationship between concentration and sucrose equivalence (2-10% sucrose)	Taste quality of aqueous solutions (all solutions, 2-10% sucrose equivalent)
CC1=CC(=O)NS(=O)(=O)O1 [AS-K, 6-Methyl-1,2,3-oxathiazin-4(3H)-one-2,2-dioxide]	undesirable bitter taste quality; also recorded: the bitter chemical taste of AS-K becomes objectionable	lack of bitter aftertaste	–	–
C[C@@H](NC(=O)[C@@H](N)CC(=O)O)C(=O)NC1C(C)(C)SC1(C)C [CP-54,802, 3-(L-Aspartyl-D-alaninamido)-2,2,4,4-tetramethylthietane]	–	–	more nearly linear relationship between concentration and sucrose equivalence	clean, sugar-like taste quality with a slightly slow onset of sweetness
